Experimental data published in paper PMC8210386.
Results are given in words; binding and its absence hold for the method and conditions named. In cells and extracts the contact can be indirect. Some binding calls cover weakened binding; strength is not graded here. Blank lines part the entries; values can stand above or below the substance they belong to.

By UniProt entry, the sequences of proteins in these tests, tags left out. Where a name states a change or a piece, a line headed by the entry shows the natural chain unless it says otherwise. Residues count along the entry.
UniProt O00206, residues 24-839: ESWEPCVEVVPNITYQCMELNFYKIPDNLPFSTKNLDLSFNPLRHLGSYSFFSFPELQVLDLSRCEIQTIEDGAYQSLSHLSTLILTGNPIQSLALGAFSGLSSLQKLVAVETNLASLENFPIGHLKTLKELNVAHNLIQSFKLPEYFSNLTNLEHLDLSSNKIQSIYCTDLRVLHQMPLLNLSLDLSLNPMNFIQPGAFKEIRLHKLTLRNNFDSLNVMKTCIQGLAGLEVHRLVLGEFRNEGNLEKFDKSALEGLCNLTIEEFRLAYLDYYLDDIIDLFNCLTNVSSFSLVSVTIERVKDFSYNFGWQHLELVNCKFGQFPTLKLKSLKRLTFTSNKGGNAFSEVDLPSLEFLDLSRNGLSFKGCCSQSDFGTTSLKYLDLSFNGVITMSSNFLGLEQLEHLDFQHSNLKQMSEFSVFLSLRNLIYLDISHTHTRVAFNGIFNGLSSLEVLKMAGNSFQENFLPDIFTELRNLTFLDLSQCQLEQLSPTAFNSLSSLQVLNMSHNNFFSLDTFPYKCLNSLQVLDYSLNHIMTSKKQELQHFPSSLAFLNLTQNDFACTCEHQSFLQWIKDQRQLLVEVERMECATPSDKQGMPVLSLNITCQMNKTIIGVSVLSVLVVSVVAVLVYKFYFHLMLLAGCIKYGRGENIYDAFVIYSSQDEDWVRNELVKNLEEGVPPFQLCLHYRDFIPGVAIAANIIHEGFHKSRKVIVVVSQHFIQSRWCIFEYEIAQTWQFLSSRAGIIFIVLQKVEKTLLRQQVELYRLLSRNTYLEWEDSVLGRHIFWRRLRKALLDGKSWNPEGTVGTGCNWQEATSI
UniProt P06748: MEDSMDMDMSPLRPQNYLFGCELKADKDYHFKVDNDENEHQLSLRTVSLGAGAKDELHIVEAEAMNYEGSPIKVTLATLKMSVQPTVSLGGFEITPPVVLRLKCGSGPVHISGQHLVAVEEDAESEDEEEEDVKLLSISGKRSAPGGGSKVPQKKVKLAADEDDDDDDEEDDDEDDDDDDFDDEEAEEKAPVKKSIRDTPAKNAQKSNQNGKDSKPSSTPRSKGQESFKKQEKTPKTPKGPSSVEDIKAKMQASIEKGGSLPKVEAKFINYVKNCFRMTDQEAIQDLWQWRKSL

Columns and labels:
[1] = target: Toll-like receptor 4 (TLR4), endogenous in human cardiac mesenchymal progenitor cells (human (endogenous in hCmPCs)) (UniProt O00206); assay: proximity ligation; DuoLink in situ PLA on NPM knocked-down (shNPM) recipient hCmPCs placed in conditioned media of ShScr or ShNPM secreting hCmPCs treated or not with 50 mJ/cm^2 UV for 4h; not permeabilised
[2] = target: Toll-like receptor 4 (TLR4), endogenous in human cardiac mesenchymal progenitor cells (human (endogenous in hCmPCs)) (UniProt O00206); assay: proximity ligation; DuoLink in situ PLA with anti-NPM1 and anti-TLR4 on serum-starved hCmPCs, fixed, not permeabilised, without added rNPM (endogenous NPM released into serum-free medium)
[3] = target: Nucleophosmin (NPM), endogenous in human cardiac mesenchymal progenitor cells (human (endogenous in hCmPCs)) (UniProt P06748); assay: co-IP; hCmPC cell extracts immunoprecipitated overnight at 4C with NPM antibody (ab245326) and protein A/G agarose, rabbit IgG as control; Western blot with TLR4 antibody; lysis buffer 50 mM HEPES pH 7.5, 250 mM NaCl, 0.1% Tween 20
[4] = target: Toll-like receptor 4 (TLR4), endogenous in human cardiac mesenchymal progenitor cells (human (endogenous in hCmPCs)) (UniProt O00206); assay: proximity ligation; DuoLink in situ PLA with anti-NPM1 and anti-TLR4 on serum-starved hCmPCs treated with rNPM (0.5 ug/ml) for 8h, fixed, not permeabilised; only the binder purified

binding [1]: binds | binding [2]: binds
Substance: Nucleophosmin (NPM), endogenous in human cardiac mesenchymal progenitor cells (from UniProt P06748-1 1-294)

binding [3]: binds
Substance: Toll-like receptor 4 (TLR4), endogenous in human cardiac mesenchymal progenitor cells (from UniProt O00206 24-839)

binding [4]: binds
Substance: recombinant NPM (rNPM), Abcam Ab114194 (from UniProt P06748 1-294)
